Primary screen of a compound library

The chains behind the UniProt entries cited, without tags or fusion partners.
UniProt E9BF75, entry or part of it: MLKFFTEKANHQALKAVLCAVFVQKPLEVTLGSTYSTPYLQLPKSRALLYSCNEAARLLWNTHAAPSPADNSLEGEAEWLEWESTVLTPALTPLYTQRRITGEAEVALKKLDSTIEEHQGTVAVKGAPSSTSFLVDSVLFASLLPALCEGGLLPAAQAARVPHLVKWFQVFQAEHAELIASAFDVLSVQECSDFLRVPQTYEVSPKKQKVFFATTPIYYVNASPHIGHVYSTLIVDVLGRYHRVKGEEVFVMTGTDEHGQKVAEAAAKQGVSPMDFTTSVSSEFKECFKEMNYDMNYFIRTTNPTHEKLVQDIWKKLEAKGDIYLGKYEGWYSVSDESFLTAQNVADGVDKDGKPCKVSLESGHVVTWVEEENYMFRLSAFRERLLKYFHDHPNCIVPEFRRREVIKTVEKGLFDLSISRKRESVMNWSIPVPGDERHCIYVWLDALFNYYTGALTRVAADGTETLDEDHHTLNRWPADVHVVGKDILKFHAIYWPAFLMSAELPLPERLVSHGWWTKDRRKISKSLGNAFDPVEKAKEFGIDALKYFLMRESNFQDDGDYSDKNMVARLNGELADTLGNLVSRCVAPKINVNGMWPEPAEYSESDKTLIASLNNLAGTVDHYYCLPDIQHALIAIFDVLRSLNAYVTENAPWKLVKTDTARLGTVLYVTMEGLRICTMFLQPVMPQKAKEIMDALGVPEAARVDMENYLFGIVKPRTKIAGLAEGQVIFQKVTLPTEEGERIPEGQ

Mtb heat-shock: 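Assay on Mycobacterium tuberculosis, filed only as a heat shock assay from Cornell; the read-out is not stated. The concentration is filed as 10 mM, unlikely as a test dose, so the dose is not known. Higher reads as stronger inhibition (inferred: compounds with an IC50 in retests scored well above the rest). Size under these conditions: about 69,000 compounds, about 930 of them at 50% or above in at least one test.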
Mtb growth Cornell: 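Whole-cell assay for inhibitors of Mycobacterium tuberculosis growth, labelled Cornell in the record; the read-out is not stated. The concentration is filed as 10 mM, unlikely as a test dose, so the dose is not known. The record gives no direction; compounds strong in two other growth screens of this library score well above the rest, so higher reads as stronger inhibition. Size under these conditions: about 53,000 compounds, about 900 of them at 50% or above in at least one test.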
LdMetRS: 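Primary screen of methionyl-tRNA synthetase; the read-out is not stated. Target: Methionyl-tRNA synthetase (putative), Leishmania donovani (UniProt E9BF75). The test concentration is not given. Values are per cent inhibition. About 68,000 compounds were tested under these conditions; 0.035% (about 24) showed 50% or more at least once.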

All values are in %.
How 0% and 100% were set is not recorded. Most values in the screen are low, and negative values occur.
Compounds were drawn at random from those tested, without regard to their results.
A dash means the value is not listed here; it may have been measured.

compound | Mtb heat-shock | Mtb growth Cornell | LdMetRS
CCCc1noc(CS(=O)(=O)c2cccc(OC)c2)n1 | -2.077% | - | 1.42%
NC(=O)C1CN(C(=O)Nc2ccccc2-c2cccs2)CCO1 (stereo not shown) | 3.888% | 3.706% | 9.841%
c1cc(-c2cnccn2)cc(-c2ccn(CCN3CCCC3)n2)c1 | 0.473% | - | 20.65%
CCN1CCCC1Cn1ccc2c(OC)c(OC)ccc2c1=O (stereo not shown) | -7.136% | - | -
[H][C@@]12CN(C(=O)c3ccc(C)nc3)C[C@]1([H])OCCN2C(C)C | -35.5% | -9.639% | -
CC(NC(=O)CN1C=Nc2ccccc2S1(=O)=O)C1CC1 (stereo not shown) | -26.36% | -34.77% | -2.514%
CS(=O)(=O)c1ccccc1-n1cc(NC(=O)CC2C=CCC2)cn1 (stereo not shown) | 1.291% | 12.46% | 22.63%
Cc1c(CC(=O)N2CCN(C(C)C)CC2)nnn1-c1ccccc1 | -19.2% | -9.321% | 5.722%
Cn1ccnc1C(=O)NC[C@@H]1OC[C@H]2CN(CC3CC3)CC[C@H]21 | - | - | 14.57%
Fc1ccc(N2CCC3(CC2)CC(OCc2cccnc2)CO3)cc1 (stereo not shown) | - | - | 22.49%
CO[C@@H]1CCN(S(=O)(=O)c2cn(C)cn2)[C@H]1Cc1ccncc1.O=C(O)C(F)(F)F | -49.62% | -11.17% | -
Cc1cc(CN2CC3(CCN(C(=O)C4CC4)CC3)CC2C(=O)O)oc1C (stereo not shown) | -7.347% | - | 12.27%
O=C(O)C(F)(F)F.[H][C@@]12CCN(Cc3c(C)noc3C)C[C@]1(C(=O)N1CCCO1)CCO2 | -5.788% | 1.343% | -
Cn1ccc(C(=O)NC2CCC23CCN(C(=O)c2cnccn2)CC3)c1 (stereo not shown) | 3.815% | 9.872% | 19.37%
Cc1cc2c(=O)n(CCSc3ncn[nH]3)cnc2s1 | -10.98% | - | 12.27%
NC(=O)CN1CCOCC(Cc2ccccc2)C1 (stereo not shown) | -12.31% | -13.88% | 16.18%
NC(=O)CN(CC(=O)NCc1cccc(Cl)c1)C1CCCC1 | -5.987% | 15.17% | 10.14%
O=C(O)C(F)(F)F.O=C(O)C(F)(F)F.[H][C@@]12CN(Cc3cccnc3)C[C@]1([H])CN(C(=O)c1cnc(C)cn1)C2 | -20.72% | 21.5% | -
Cc1ccc(OCCN(C)C(=O)NC(C)c2nncn2C)cc1 (stereo not shown) | -27.72% | -13.35% | 25.72%
COCCCNC(=O)c1c(-n2cnnn2)sc2c1CCC2 | 2.72% | 9.942% | 10.2%
Cc1cc(C)n(CC2CCN(CC(O)CN3CCOCC3)CC2)n1 (stereo not shown) | 11.16% | 8.284% | 6.504%
[H][C@@]12COC[C@]1(COC)CN(C(=O)COC)C2 | 9.922% | -19.62% | -
Cc1cccnc1CC(C)Nc1ncc(C)c(N(C)C)n1 (stereo not shown) | -23.25% | 7.64% | 4.693%
Cn1nc(COCC2CC2)c2c1CCN(Cc1cccs1)C2 | - | - | 14.03%
c1cnc(N2CC[C@@H]3[C@@H]2CCN3Cc2cccs2)nc1 | - | - | 10.73%
COc1ccc(-n2c(SC)nc(O)c(Cc3ccccc3)c2=O)cc1 | -8.8% | 13.52% | 6.723%
CCC(C)(C)N(C)CCOc1cccc(S(C)(=O)=O)c1 | 2.005% | 13.68% | 17.48%
CC(C)c1noc(CCNC(=O)N2CCC(O)(C(F)(F)F)C2)n1 (stereo not shown) | 10.29% | -27.16% | 7.042%
COc1cccc(-c2n[nH]c3c2CN(C(=O)c2ccncc2)CC3)c1 | 13.67% | 12.14% | -5.783%
Cc1cnc(-n2cnnc2)c(-c2cccc3c2CCNC3)c1 | 13.58% | -7.06% | 9.091%
COc1ccc(F)cc1C(=O)N(C)Cc1cc(C)on1 | 35.69% | 10.94% | 11.66%
CC(C)CS(=O)(=O)N1CCC2(CC1)CCn1c(-c3cnn(C)c3)cnc12 | -3.628% | -8.624% | 3.846%
CCc1cc(N2CCC(NC3CN4CCC3CC4)CC2)nc(N(C)C)n1 (stereo not shown) | -40.17% | 5.326% | 10.88%
Cc1nnc([C@@H]2C[C@H]3CN(C4CCC4)C[C@H]3O2)[nH]1 | - | - | 8.333%
CCc1n[nH]c(NC(=O)c2ccc(Cl)cn2)c1Br | -1.008% | - | 16.4%
Cn1c(N)c2c(=O)n(C)c(-c3ccc(Cl)cc3)cc2c(C#N)c1=O | 6.477% | 11.55% | 19.47%
CCn1ccc2ccnc(CC3CN(C(=O)c4cnco4)C3)c21 | 27.43% | -2.814% | 19.62%
c1ccn2c(SCC3CN=C(N4CCOCC4)S3)ncc2c1 (stereo not shown) | -0.459% | 14.52% | 13.89%
Cn1cc(CN2CCC3(CC2)CC(c2ccncc2)C(=O)N3)cn1.O=C(O)C(F)(F)F.O=C(O)C(F)(F)F (stereo not shown) | -7.095% | 5.179% | -
CNC(=O)c1ccc(C2CCCN(C(=O)c3c(C)noc3C)C2)nc1 (stereo not shown) | -2.027% | -89.19% | 17.36%
COCc1ccccc1C(=O)NCC(c1c(F)cccc1F)N(C)C (stereo not shown) | 0.2813% | 1.464% | 8.437%
O=C(c1ccccn1)N1CCc2nc(-c3cnccn3)nc(O)c2C1 | -12.91% | -17.61% | 9.247%
COc1cc(C)nc(N2CCN(C(=O)CSC)CC2)n1 | 12.41% | - | 13.68%
CCN1Cc2nc(OC)c(CNC(=O)C3CCS(=O)(=O)CC3)cc2C1=O | 3.748% | 13.42% | -0.8596%
Cc1cccc(N2CCN(C(=O)c3c(C)nn(C)c3C)CC2)c1C | -3.342% | 25.39% | 9.657%
CC(C)C(=O)NCc1ccc(N(C)C)cc1 | -7.218% | - | 23.2%
CCCn1cnnc1CNCc1c[nH]nc1-c1ccc(F)cc1 | -15.66% | - | 10.26%
CCOCCCn1c(NC(=O)c2cnc(C)cn2)nc2ccccc21 | 28.96% | - | 19.32%
c1cnc(N2CCOCC3(CN(Cc4ccsc4)CCO3)C2)nc1 (stereo not shown) | - | - | 12.2%
O=C(O)C(F)(F)F.O=C1CC2(CCN(CC3CC3)C2)CN1c1cccc(F)c1 (stereo not shown) | 4.188% | -18.82% | -
Cc1ncc(CN(Cc2ccccn2)Cc2ccccc2Cl)n1C.O=C(O)CC(O)(CC(=O)O)C(=O)O | 34.76% | 4.102% | -

Data taken from ChEMBL document CHEMBL3988442, “University of Dundee, Small-Polar-MMV Screening Library” (2021).